Laboratory results as given in the supplement of paper PMC10849652.
Some of the results follow.

By UniProt entry, the sequences of proteins in these tests, tags left out. Where a name states a change or a piece, a line headed by the entry shows the natural chain unless it says otherwise.
UniProt Q05D60: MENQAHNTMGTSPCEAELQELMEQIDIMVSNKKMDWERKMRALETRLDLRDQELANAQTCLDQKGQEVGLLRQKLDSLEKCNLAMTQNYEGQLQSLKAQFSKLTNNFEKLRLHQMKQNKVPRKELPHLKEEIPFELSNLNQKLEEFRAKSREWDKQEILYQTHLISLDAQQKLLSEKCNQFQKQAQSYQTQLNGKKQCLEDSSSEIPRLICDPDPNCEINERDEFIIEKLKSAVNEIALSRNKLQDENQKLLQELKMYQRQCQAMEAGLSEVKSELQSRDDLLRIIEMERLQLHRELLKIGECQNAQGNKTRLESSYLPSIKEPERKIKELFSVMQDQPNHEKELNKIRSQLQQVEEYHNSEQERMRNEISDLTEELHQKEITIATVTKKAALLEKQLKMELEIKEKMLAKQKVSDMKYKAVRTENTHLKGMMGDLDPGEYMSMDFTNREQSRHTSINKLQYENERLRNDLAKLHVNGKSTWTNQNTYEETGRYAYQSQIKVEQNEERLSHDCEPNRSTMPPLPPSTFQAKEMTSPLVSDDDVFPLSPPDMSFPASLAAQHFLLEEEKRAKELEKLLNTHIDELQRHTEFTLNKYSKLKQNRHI
UniProt O00399, whole entry, looked up: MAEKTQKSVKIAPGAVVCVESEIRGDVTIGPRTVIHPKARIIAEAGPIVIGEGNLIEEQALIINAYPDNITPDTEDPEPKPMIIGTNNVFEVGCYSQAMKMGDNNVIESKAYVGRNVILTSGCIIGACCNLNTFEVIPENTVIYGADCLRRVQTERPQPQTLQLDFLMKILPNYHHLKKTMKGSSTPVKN
UniProt Q9NUL7: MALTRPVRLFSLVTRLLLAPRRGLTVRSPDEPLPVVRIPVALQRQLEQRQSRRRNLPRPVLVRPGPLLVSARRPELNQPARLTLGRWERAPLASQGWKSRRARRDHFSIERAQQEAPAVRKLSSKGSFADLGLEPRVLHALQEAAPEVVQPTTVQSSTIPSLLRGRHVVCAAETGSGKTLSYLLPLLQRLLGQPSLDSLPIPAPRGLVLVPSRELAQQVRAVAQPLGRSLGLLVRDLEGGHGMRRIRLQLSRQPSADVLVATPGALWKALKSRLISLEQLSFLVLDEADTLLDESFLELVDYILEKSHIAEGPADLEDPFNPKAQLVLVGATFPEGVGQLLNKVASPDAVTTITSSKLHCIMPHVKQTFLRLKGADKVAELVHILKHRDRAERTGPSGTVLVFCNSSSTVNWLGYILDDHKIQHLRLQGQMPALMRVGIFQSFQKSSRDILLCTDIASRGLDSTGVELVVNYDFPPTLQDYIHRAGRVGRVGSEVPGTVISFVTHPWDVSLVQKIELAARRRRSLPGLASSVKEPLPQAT
UniProt Q9BSY9: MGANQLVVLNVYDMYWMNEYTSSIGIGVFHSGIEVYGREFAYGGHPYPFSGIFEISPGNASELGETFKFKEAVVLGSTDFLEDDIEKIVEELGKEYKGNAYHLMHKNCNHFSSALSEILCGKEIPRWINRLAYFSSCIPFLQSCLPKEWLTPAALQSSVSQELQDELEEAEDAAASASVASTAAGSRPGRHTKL
UniProt Q07973: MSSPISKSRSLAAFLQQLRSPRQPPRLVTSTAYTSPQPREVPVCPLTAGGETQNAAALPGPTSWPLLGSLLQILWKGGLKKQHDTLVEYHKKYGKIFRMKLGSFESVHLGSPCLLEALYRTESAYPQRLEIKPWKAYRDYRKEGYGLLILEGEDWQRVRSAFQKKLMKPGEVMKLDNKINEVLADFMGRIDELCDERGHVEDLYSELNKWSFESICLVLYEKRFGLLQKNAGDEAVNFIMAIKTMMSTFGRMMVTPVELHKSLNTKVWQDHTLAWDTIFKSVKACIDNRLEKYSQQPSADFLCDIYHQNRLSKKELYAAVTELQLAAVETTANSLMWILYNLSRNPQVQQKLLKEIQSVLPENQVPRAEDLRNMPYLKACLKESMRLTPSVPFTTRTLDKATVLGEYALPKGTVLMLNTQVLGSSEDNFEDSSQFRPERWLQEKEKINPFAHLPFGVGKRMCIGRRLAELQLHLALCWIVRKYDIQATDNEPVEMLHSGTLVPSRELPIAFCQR
UniProt Q6ICB0: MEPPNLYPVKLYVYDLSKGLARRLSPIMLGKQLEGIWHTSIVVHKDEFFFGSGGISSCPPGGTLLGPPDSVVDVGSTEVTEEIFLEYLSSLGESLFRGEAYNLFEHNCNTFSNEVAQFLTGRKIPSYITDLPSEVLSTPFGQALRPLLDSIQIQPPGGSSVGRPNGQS
UniProt Q9H0S4: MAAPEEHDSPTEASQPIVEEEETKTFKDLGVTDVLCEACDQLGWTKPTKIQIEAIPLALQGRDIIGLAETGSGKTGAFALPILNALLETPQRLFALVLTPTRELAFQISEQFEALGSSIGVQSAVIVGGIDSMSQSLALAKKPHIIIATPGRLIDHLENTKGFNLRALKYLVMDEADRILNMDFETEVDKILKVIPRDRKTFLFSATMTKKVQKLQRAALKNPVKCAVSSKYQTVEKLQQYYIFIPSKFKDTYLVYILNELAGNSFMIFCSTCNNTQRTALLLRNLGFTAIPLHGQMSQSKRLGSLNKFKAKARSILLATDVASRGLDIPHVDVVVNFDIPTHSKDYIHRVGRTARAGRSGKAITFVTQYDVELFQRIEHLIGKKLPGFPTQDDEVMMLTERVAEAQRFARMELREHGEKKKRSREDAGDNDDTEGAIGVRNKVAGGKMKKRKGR
UniProt Q08345: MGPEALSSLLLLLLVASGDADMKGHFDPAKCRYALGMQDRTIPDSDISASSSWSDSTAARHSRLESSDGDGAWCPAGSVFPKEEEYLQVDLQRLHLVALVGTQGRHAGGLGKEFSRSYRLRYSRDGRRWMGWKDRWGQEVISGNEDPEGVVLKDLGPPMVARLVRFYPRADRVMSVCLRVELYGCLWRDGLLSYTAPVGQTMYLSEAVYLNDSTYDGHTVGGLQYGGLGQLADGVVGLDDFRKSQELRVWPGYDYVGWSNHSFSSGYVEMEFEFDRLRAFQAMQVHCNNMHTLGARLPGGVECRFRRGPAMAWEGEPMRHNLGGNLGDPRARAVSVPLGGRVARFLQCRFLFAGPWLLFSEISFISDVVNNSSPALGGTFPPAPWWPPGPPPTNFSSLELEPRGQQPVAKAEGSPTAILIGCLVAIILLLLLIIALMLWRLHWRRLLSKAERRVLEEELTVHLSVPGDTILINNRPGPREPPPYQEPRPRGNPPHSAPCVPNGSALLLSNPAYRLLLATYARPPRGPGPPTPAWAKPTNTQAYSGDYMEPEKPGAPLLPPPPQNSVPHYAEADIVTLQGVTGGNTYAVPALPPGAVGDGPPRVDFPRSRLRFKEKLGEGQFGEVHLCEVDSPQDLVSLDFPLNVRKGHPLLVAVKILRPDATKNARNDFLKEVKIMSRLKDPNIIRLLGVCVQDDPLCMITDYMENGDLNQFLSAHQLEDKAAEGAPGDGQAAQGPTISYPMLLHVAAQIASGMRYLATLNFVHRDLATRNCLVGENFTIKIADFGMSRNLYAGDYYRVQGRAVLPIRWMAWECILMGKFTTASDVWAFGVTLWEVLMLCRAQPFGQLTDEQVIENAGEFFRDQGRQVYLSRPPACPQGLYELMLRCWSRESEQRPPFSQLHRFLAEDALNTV
UniProt Q99418: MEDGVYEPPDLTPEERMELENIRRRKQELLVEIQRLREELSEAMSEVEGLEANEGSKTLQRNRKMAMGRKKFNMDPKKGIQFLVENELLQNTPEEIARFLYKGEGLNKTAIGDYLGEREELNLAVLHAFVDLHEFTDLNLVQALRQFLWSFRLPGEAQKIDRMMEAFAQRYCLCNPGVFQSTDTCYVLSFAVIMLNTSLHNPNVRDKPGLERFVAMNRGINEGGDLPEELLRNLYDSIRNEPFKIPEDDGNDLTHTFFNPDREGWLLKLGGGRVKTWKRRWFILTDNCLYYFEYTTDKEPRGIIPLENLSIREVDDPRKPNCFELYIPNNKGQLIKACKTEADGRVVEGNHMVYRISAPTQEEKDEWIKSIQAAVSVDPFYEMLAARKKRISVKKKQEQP
UniProt Q5D0E6: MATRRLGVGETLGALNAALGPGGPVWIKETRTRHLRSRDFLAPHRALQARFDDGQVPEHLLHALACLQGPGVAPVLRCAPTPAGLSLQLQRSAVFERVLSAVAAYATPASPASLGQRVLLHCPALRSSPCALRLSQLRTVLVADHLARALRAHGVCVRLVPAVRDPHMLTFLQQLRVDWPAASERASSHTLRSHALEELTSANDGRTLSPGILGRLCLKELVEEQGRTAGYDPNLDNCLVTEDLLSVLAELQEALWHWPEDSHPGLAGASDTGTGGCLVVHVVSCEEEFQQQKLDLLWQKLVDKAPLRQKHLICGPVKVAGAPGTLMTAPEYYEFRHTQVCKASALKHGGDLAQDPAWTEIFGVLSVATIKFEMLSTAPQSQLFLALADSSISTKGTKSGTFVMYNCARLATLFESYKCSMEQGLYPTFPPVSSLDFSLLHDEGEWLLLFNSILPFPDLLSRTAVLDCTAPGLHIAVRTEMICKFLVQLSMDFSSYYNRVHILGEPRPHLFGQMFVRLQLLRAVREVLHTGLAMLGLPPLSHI
UniProt Q96SD1, whole entry, looked up: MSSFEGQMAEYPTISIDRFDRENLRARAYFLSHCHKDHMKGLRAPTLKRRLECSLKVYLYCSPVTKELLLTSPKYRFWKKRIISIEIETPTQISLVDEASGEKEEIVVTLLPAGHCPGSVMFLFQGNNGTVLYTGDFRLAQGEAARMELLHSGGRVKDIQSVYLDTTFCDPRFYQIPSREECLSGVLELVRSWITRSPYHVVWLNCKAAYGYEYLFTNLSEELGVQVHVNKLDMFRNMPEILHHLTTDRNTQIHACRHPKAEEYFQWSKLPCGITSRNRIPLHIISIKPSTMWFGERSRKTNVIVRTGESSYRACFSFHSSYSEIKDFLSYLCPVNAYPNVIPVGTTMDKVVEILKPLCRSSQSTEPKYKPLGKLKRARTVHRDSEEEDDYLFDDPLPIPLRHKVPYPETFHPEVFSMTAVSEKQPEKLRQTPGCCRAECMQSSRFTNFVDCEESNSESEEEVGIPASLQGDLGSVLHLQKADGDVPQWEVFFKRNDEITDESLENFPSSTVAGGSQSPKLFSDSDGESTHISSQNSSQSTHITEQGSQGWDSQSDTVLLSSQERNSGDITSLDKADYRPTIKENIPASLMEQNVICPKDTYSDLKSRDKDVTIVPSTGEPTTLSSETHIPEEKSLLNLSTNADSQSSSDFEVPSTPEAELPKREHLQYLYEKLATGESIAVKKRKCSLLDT

Assays:
Test in all cases: log2 fold change, soluble protein after heating vs DMSO (PISA); higher = thermal stabilisation; K562 lysate, 10 uM; active = over 0.2 and 3.5 SD of the protein, either way, in both replicates (recomputed)
[1] = compound: NCC(=O)Nc1ccc(-n2nc(C(F)(F)F)cc2-c2ccc3c(ccc4ccccc43)c2)cc1
Summary of the method: (§1)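 Thermal stability, expressed as log-two fold change relative to solvent controls, is given from duplicates. Crude K562 extract in PBS pH 7.4 with 1 mM MgCl2, at 1 mg/mL protein, was treated with 10 μM compound for 30 min and heated in aliquots for 3 min across 48°C-58°C. After pooling, adjustment to 0.5% NP-40 at 4°C and centrifugation at 21,000xg for 90 min, supernatant protein was measured by TMTpro 16plex LC-MS/MS with channel sums equalised.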

entospletinib = compound: c1cn2cc(-c3ccc4cn[nH]c4c3)nc(Nc3ccc(N4CCOCC4)cc3)c2n1 [entospletinib]
Summary of the method: as §1

vorinostat = compound: O=C(CCCCCCC(=O)Nc1ccccc1)NO [vorinostat]
Summary of the method: as §1

silmitasertib = compound: O=C(O)c1ccc2c(c1)nc(Nc1cccc(Cl)c1)c1ccncc12 [silmitasertib]
Summary of the method: as §1

[2] = compound: O=C1NC(=O)C(c2cnc3ccccn23)=C1c1cn2c3c(cc(F)cc13)CN(C(=O)N1CCCCC1)CC2
Summary of the method: as §1

Target: DDX46, A0A0C4DG89
- log2 fold change [1]: inactive: -0.041
- log2 fold change (entospletinib): inactive: -0.093

Target: DEUP1 (UniProt Q05D60)
- log2 fold change (vorinostat): inactive: 0.219
- log2 fold change (silmitasertib): inactive: -0.189
- log2 fold change [2]: inactive: 0.153
- log2 fold change (entospletinib): inactive: -0.073

Target: DCTN6 (UniProt O00399)
- log2 fold change [1]: inactive: 0.017
- log2 fold change (vorinostat): inactive: 0.112
- log2 fold change (silmitasertib): inactive: 0.023
- log2 fold change [2]: inactive: 0.026
- log2 fold change (entospletinib): inactive: -0.041

Target: DDX28 (UniProt Q9NUL7)
- log2 fold change (vorinostat): inactive: -0.149
- log2 fold change (silmitasertib): inactive: -0.155
- log2 fold change [2]: inactive: 0

Target: DESI2 (UniProt Q9BSY9)
- log2 fold change [1]: inactive: 0.155
- log2 fold change (entospletinib): inactive: 0.116

Target: CYP24A1 (UniProt Q07973)
- log2 fold change [1]: inactive: 0.187
- log2 fold change (vorinostat): inactive: 0.119
- log2 fold change (silmitasertib): inactive: 0.019
- log2 fold change [2]: inactive: 0.081
- log2 fold change (entospletinib): inactive: 0.002

Target: DESI1 (UniProt Q6ICB0)
- log2 fold change [1]: inactive: -0.078
- log2 fold change [2]: inactive: -0.071
- log2 fold change (entospletinib): inactive: -0.085

Target: DDX47 (UniProt Q9H0S4)
- log2 fold change [1]: inactive: -0.03
- log2 fold change (vorinostat): inactive: -0.012
- log2 fold change (silmitasertib): inactive: 0.004
- log2 fold change [2]: inactive: -0.007
- log2 fold change (entospletinib): inactive: 0.033

Target: DDR1 isoform 5 (UniProt Q08345)
- log2 fold change [2]: inactive: -0.026
- log2 fold change (entospletinib): inactive: -0.153

Target: CYTH2 (UniProt Q99418)
- log2 fold change (vorinostat): inactive: -0.139
- log2 fold change (silmitasertib): inactive: 0.044
- log2 fold change (entospletinib): inactive: -0.022

Target: DALRD3 (UniProt Q5D0E6)
- log2 fold change [1]: inactive: -0.17
- log2 fold change (vorinostat): active: -0.895
- log2 fold change (silmitasertib): inactive: 0.074
- log2 fold change (entospletinib): inactive: -0.046

Target: DCLRE1C (UniProt Q96SD1)
- log2 fold change [2]: inactive: 0.045
